Measured values as given in patent US12151028B2, “Drug delivery systems comprising solid solutions of weakly basic drugs” (Adare Pharmaceuticals, Inc., priority 2006, dated 2024).
In brackets after ≈: the same amount, converted by molar mass.

Assay: physchem

COC(=O)C1=C(C)NC(C)=C(C(=O)OC)C1c1ccccc1[N+](=O)[O-] [Nifedipine, nifedipine]
solubility (pH 2.2, aqueous buffer): 7.1 µg/mL (≈ 20.5 µM)
solubility (pH 2.88, aqueous buffer): 5.7 µg/mL (≈ 16.5 µM)
solubility (pH 3.28, aqueous buffer): 6.2 µg/mL (≈ 17.9 µM)
solubility (pH 3.9, aqueous buffer): 5.7 µg/mL (≈ 16.5 µM)
solubility (pH 4.24, aqueous buffer): 5.6 µg/mL (≈ 16.2 µM)
solubility (pH 4.45, aqueous buffer): 5.1 µg/mL (≈ 14.7 µM)
solubility (pH 4.84, aqueous buffer): 5.3 µg/mL (≈ 15.3 µM)
solubility (pH 5.22, aqueous buffer): 5.3 µg/mL (≈ 15.3 µM)
solubility (pH 5.4, aqueous buffer): 5.2 µg/mL (≈ 15 µM)
solubility (pH 5.83, aqueous buffer): 5.4 µg/mL (≈ 15.6 µM)
solubility (pH 6.52, aqueous buffer): 5.2 µg/mL (≈ 15 µM)
solubility (pH 7.53, aqueous buffer): 5.2 µg/mL (≈ 15 µM)
